In the supplement of paper PMC10735217:
Structures can show the parent of a compound that is named as a salt. The list shows a part of the results. Single values are uncertain here, since repeats match poorly.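 Human kidney-derived cells stably carry a construct in which eight TEAD-binding elements drive luciferase, measured by luminescence in a drug-repurposing library screen. A hit is any compound whose signal exceeds the plate mean by more than five robust Z scores.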

Test system: HEK293A TEAD-LUC reporter
Experiment: TEAD-luciferase reporter activity (YAP activation), robust Z score vs plate; higher = stronger YAP/TEAD activation
Settings: 24 h

SMILES | TEAD-luciferase reporter activity (compound concentration: 200 nM) | TEAD-luciferase reporter activity (compound concentration: 2 uM) | TEAD-luciferase reporter activity (compound concentration: 10 uM)
NC(CO)C(=O)NNCc1ccc(O)c(O)c1O (stereo not given) [Benserazide HCl] | inactive: -0.675 | inactive: 4.54 | inactive: -0.962
Cc1ccccc1C(=O)N1CCC(n2c(=O)[nH]c3ccccc32)CC1 | inactive: -0.997 | – | inactive: -1.45
O=S(=O)(c1nc(-c2ccc(F)cc2)c(-c2ccc(F)cc2)[nH]1)C(F)(F)C(F)F [tiflamizole] | inactive: 0.447 | inactive: 0.16 | inactive: 4.95
CC(C)(C)NCc1cc(C(C)(C)C)cc(-c2ccc(Cl)cc2)c1O | inactive: -0.231 | inactive: -1.36 | active: 6.72
CCOC(=O)Cc1cc(Cl)c(Oc2ccc(C(=O)NC(C)(C)C)cc2NS(=O)(=O)c2ccc(C#N)cc2)cc1F | inactive: -0.904 | inactive: -0.3 | inactive: 1.25
C/C(=N\NC(=O)c1ccc(C(=O)O)s1)c1csc(-c2ccc(Cl)c(Cl)c2)c1O | inactive: -0.848 | inactive: 0.238 | inactive: 1.97
CO/N=C(/N)c1ccc(-c2ccc(-c3ccc(/C(N)=N\OC)cc3)o2)cc1 [pafuramidine] | inactive: 1.89 | – | inactive: 3.84
CO/N=C(/N)c1ccc(-c2ccc(-c3ccc(/C(N)=N\OC)cc3)o2)cc1 | – | inactive: 1.49 | –
O=S(=O)(O)CS(=O)(=O)O | inactive: -0.0589 | inactive: -1.52 | inactive: 0.0595
CCCCCCCCCCC[C@@H](C[C@@H]1OC(=O)[C@H]1CCCCCC)OC(=O)[C@H](CC(C)C)NC=O [Orlistat] | – | inactive: -0.693 | –
CCCCCCCCCCC[C@@H](C[C@@H]1OC(=O)[C@H]1CCCCCC)OC(=O)[C@H](CC(C)C)NC=O | inactive: -0.977 | – | inactive: -0.665
O=C(C(=O)N1CCN(C(=O)c2ccccc2)CC1)c1c[nH]c2c(-c3ncon3)ccc(F)c12 [analog of Temsavir] | inactive: -1.86 | inactive: -1.48 | inactive: -2.2
COC(=O)C1=C(C)NC(C)=C(C(=O)OC)C1C1=COCCO1 | inactive: -0.325 | inactive: 0.054 | inactive: 1.63
CCOc1ccc(-c2ccc(Cn3c(CC(C)(C)C(=O)O)c(SC(C)(C)C)c4cc(OCc5ccc(C)cn5)ccc43)cc2)cn1 [fiboflapon] | inactive: -0.718 | inactive: -0.146 | inactive: -0.379
COc1ccc(Cl)c(Nc2nc3ccccc3nc2NS(=O)(=O)c2cccc(NC(=O)C(C)(C)N)c2)c1 [Pilaralisib] | – | inactive: -1.41 | –
COc1ccc(Cl)c(Nc2nc3ccccc3nc2NS(=O)(=O)c2cccc(NC(=O)C(C)(C)N)c2)c1 | inactive: -0.273 | – | inactive: -0.0641
CCn1nc(C(=O)O)c(=O)c2cc3c(cc21)OCO3 [cinoxacin] | inactive: -0.465 | inactive: -1.55 | inactive: 0.119
CC(CN(C)C)CN1c2ccccc2CCc2ccccc21 (stereo not given) [Trimipramine maleate] | inactive: 0.387 | inactive: 1.92 | inactive: 1.48
Cn1nnnc1C(/C=C/[C@@H]1C[C@@H](O)CC(=O)O1)=C(c1ccc(F)cc1)c1ccc(F)cc1 | inactive: 2.33 | inactive: -0.663 | inactive: 4.52
O=C(O)Cn1nnc(-c2cc(N3CCC(Oc4cc(F)ccc4Br)CC3)no2)n1 | inactive: -1.17 | inactive: -0.743 | inactive: -1.68

SMILES | TEAD-luciferase reporter activity (compound concentration: 200 nM) | TEAD-luciferase reporter activity (compound concentration: 2 uM) | TEAD-luciferase reporter activity (compound concentration: 10 uM)
Oc1ccc(Cc2nccc3cc(O)c(O)cc23)cc1O [Papaveroline] | inactive: -1.43 | inactive: -1.48 | inactive: -1.27
Cc1ncoc1-c1nnc(SCCCN2CC3CC3(c3ccc(C(F)(F)F)cc3F)C2)n1C (stereo not given) | inactive: -0.45 | inactive: -1.04 | inactive: -0.822
CC(CCc1ccccc1)NCC(O)c1ccc(O)c(C(N)=O)c1 (stereo not given) [Labetalol] | inactive: 0.879 | – | inactive: -1.92
CC(CCc1ccccc1)NCC(O)c1ccc(O)c(C(N)=O)c1 (stereo not given) [labetalol] | – | inactive: 1.58 | –
Cc1ccsc1/C=C/C1=NCCCN1C | inactive: -0.625 | – | inactive: 1.55
Cc1ccsc1/C=C/C1=NCCCN1C [Morantel Citrate] | – | inactive: -1.26 | –
CC(C(O)c1ccccc1)N(C)CC=C1c2ccccc2CCc2ccccc21 (stereo not given) | inactive: 1.08 | inactive: -0.794 | inactive: 0.0469
Cc1ccc(Cn2nc(CCCc3ccc(OC(C)(C)C(=O)O)cc3)[nH]c2=O)cc1 | inactive: -0.64 | inactive: -0.294 | inactive: -0.265
COc1cc(NS(C)(=O)=O)ccc1Nc1c2ccccc2nc2ccccc12 [amsacrine, Bristol-Myers] | inactive: -1.53 | inactive: 2.94 | inactive: -0.51
CCCCCCCCCCCCCCOC(=O)c1cccnc1 [Myristyl nicotinate] | inactive: -0.825 | inactive: -2.13 | inactive: 2.2
C#CCOc1ccc(Nc2nc(Nc3ccc(C)c(S(=O)(=O)NC(=O)CC)c3)ncc2F)cc1 | inactive: 2.57 | inactive: -0.529 | inactive: 0.964
CC(CCc1ccccc1)NCC#N (stereo not given) | inactive: -1.21 | inactive: 2.31 | inactive: -1.5
COc1nc(N)c2ncn(C3CCCCC3)c2n1 | inactive: 4.04 | inactive: -0.87 | inactive: -1.18
CC1(C)OC(=O)C(c2cccc(F)c2)=C1c1ccc(S(C)(=O)=O)cc1 | inactive: 0.155 | inactive: -0.0695 | inactive: -0.228
C(=C1/CCCCC1N1CCC1)/c1ccccc1 (stereo not given) | inactive: 1.63 | inactive: 0.0679 | inactive: 2.41
COC(=O)N[C@H](C(=O)N1[C@H](c2nc3cc(-c4cc5ccc4CCc4ccc(c(-c6ccc7[nH]c([C@@H]8C[C@@H]9CCCC[C@@H]9N8C(=O)[C@@H](NC(=O)OC)C(C)C)nc7c6)c4)CC5)ccc3[nH]2)C[C@@H]2CCCC[C@@H]21)C(C)C [Odalasvir] | inactive: 0.0589 | inactive: -0.703 | inactive: 0.88
O=C(Oc1c(Br)cc(Br)c2cccnc12)c1cccc(Cl)c1 | inactive: -1.44 | inactive: -0.31 | inactive: 0.0672
CCN1CCC(Nc2ccc3c(c2)/C(=C(/c2cccc(F)c2)c2nc(C)c[nH]2)C(=O)N3)CC1 | inactive: 2.93 | active: 13.5 | active: 12.6
CCN1CCCCC12Cc1ccccc1CN(C(=O)CCC(=O)O)C2 (stereo not given) | inactive: 0.303 | – | inactive: 0.997
C(COCC1CO1)OCCOCC1CO1 (stereo not given) | inactive: 1.15 | inactive: 0.0955 | inactive: 0.118

SMILES | TEAD-luciferase reporter activity (compound concentration: 200 nM) | TEAD-luciferase reporter activity (compound concentration: 2 uM) | TEAD-luciferase reporter activity (compound concentration: 10 uM)
O=P(O)(O)OC(Cn1cncn1)(Cn1cncn1)c1ccc(F)cc1F [fosfluconazole] | inactive: 1.23 | inactive: 1.12 | inactive: 0.367
C[C@]1(c2cc(NC(=O)c3ccc(C#N)cn3)ccc2F)N=C(N)OCC1(F)F | inactive: -1.43 | inactive: -0.351 | inactive: 1.46
Cc1ccc(Nc2ncccc2C(=O)O)c(C)c1 | inactive: 0.00195 | inactive: 0.0828 | inactive: 3.44
COc1ccc(Nc2ccc(CCNC[C@H](O)c3ccc(O)c4[nH]c(=O)ccc34)cc2)cc1-c1ccccc1 | inactive: -1.06 | inactive: -0.696 | inactive: -0.646
O=C(Nc1ccc2ccccc2c1)C(c1csc2ccc(Cl)cc12)P(=O)(O)O (stereo not given) | inactive: 1.59 | inactive: -0.0335 | inactive: 0.995
COC(=O)c1ccccc1O [methyl salicylate] | inactive: 0.992 | inactive: -0.301 | inactive: 2.75
Cc1cc2c(OCC(O)CNC(C)CCn3cnc4c3c(=O)n(C)c(=O)n4C)cccc2[nH]1 (stereo not given) | inactive: -0.00772 | inactive: -0.675 | inactive: -0.508
CCCC(O)C(CC)CO (stereo not given) | inactive: 0.198 | inactive: -1.01 | inactive: -0.473
C[C@H](CCC(=O)O)[C@H]1CC[C@H]2[C@@H]3CC[C@@H]4C[C@H](O)CC[C@]4(C)[C@H]3C[C@H](O)[C@]12C [deoxycholic acid] | – | inactive: -0.156 | –
C[C@H](CCC(=O)O)[C@H]1CC[C@H]2[C@@H]3CC[C@@H]4C[C@H](O)CC[C@]4(C)[C@H]3C[C@H](O)[C@]12C [deoxycholic acid, Kythera] | inactive: -1.63 | – | inactive: 2.9
Cc1c(C(N)=O)cc([N+](=O)[O-])cc1[N+](=O)[O-] | inactive: -0.543 | – | inactive: 0.645
Cc1c(C(N)=O)cc([N+](=O)[O-])cc1[N+](=O)[O-] [Zoalene] | – | inactive: -0.888 | –
Oc1c(Cl)cc(Cl)cc1Sc1cc(Cl)cc(Cl)c1O [bithionol] | – | inactive: -1.41 | –
Oc1c(Cl)cc(Cl)cc1Sc1cc(Cl)cc(Cl)c1O | inactive: -1.23 | – | active: 12.8
COc1ccc2c(c1)N(CCCN(C)C)c1ccccc1S2 | inactive: 0.772 | inactive: 1.17 | inactive: 0.576
COc1cc2nc(N3CCN(C(=O)C4COc5ccccc5O4)CC3)nc(N)c2cc1OC (stereo not given) [Doxazosin] | inactive: -0.27 | – | inactive: 0.349
COc1cc2nc(N3CCN(C(=O)C4COc5ccccc5O4)CC3)nc(N)c2cc1OC [(S)-doxazosin] | – | inactive: 2.84 | –
CN(Cc1ccccc1)C(=O)[C@H](Cc1ccc2ccccc2c1)N(C)C(=O)[C@@H]1CCCN1c1nc2ccccc2c(=O)[nH]1 | inactive: 0.654 | inactive: 0.496 | inactive: 0.402

Looked up above.
In TEAD-luciferase reporter activity (compound concentration: 2 uM), Cc1ccc(Nc2ncccc2C(=O)O)c(C)c1 is listed with inactive: 0.0828
In TEAD-luciferase reporter activity (compound concentration: 2 uM), O=C(C(=O)N1CCN(C(=O)c2ccccc2)CC1)c1c[nH]c2c(-c3ncon3)ccc(F)c12 [analog of Temsavir] is listed with inactive: -1.48
In TEAD-luciferase reporter activity (compound concentration: 2 uM), COc1cc2nc(N3CCN(C(=O)C4COc5ccccc5O4)CC3)nc(N)c2cc1OC [(S)-doxazosin] is listed with inactive: 2.84
In TEAD-luciferase reporter activity (compound concentration: 10 uM), COc1ccc(Cl)c(Nc2nc3ccccc3nc2NS(=O)(=O)c2cccc(NC(=O)C(C)(C)N)c2)c1 is listed with inactive: -0.0641
